From paper PMC8917353
Where a chain is given by its changes, count along the chain named. In names and notes the source's numbering stands. Results are given in words; binding and its absence hold for the method and conditions named. In cells and extracts the contact can be indirect. Some binding calls cover weakened binding; strength is not graded here.

Sequences of proteins named here, by UniProt entry; tags and fusion partners are left off.
UniProt P62834: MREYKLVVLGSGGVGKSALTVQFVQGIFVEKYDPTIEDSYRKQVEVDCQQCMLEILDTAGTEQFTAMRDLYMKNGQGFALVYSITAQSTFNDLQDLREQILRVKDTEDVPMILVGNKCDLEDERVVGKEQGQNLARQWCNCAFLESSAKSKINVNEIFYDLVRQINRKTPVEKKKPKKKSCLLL

B1: mCherry-KRIT1-R452E with the negative lipidation control sequence (…) at the C-terminus (protein, UniProt O00522 1-736)
chain: MGNPENIEDAYVAVIRPKNTASLNSREYRAKSYEILLHEVPIEGQKKKRKKVLLETKLQGNSEITQGILDYVVETTKPISPANQGIRGKRVVLMKKFPLDGEKMGREASLFIVPSVVKDNTKYTYTPGCPIFYCLQDIMRVCSESSTHFATLTARMLIALDKWLDERHAQSHFIPALFRPSPLERIKTNVINPAYATESGQTENSLHMGYSALEIKSKMLALEKADTCIYNPLFGSDLQYTNRVDKVVINPYFGLGAPDYSKIQIPKQEKWQRSMSSVTEDKERQWVDDFPLHRSACEGDSELLSRLLSERFSVNQLDSDHWAPIHYACWYGKVEATRILLEKGKCNPNLLNGQLSSPLHFAAGGGHAEIVQILLNHPETDRHITDQQGRSPLNICEENKQNNWEEAAKLLKEAINKPYEKVRIYRMDGSYRSVELKHGNNTTVQQIMEGMELSQETQQYFTIWICSENLSLQLKPYHKPLQHVRDWPEILAELTNLDPQRETPQLFLRRDVRLPLEVEKQIEDPLAILILFDEARYNLLKGFYTAPDAKLITLASLLLQIVYGNYESKKHKQGFLNEENLKSIVPVTKLKSKAPHWTNRILHEYKNLSTSEGVSKEMHHLQRMFLQNCWEIPTYGAAFFTGQIFTKASPSNHKVIPVYVGVNIKGLHLLNMETKALLISLKYGCFMWQLGDTDTCFQIHSMENKMSFIVHTKQAGLVVKLLMKLNGQLMPTERNSKKKPKKKSSLLL
B2: mCherry-KRIT1 192APAA195 R452E (protein, UniProt O00522 1-736)
chain: MGNPENIEDAYVAVIRPKNTASLNSREYRAKSYEILLHEVPIEGQKKKRKKVLLETKLQGNSEITQGILDYVVETTKPISPANQGIRGKRVVLMKKFPLDGEKMGREASLFIVPSVVKDNTKYTYTPGCPIFYCLQDIMRVCSESSTHFATLTARMLIALDKWLDERHAQSHFIPALFRPSPLERIKTNVIAPAAATESGQTENSLHMGYSALEIKSKMLALEKADTCIYNPLFGSDLQYTNRVDKVVINPYFGLGAPDYSKIQIPKQEKWQRSMSSVTEDKERQWVDDFPLHRSACEGDSELLSRLLSERFSVNQLDSDHWAPIHYACWYGKVEATRILLEKGKCNPNLLNGQLSSPLHFAAGGGHAEIVQILLNHPETDRHITDQQGRSPLNICEENKQNNWEEAAKLLKEAINKPYEKVRIYRMDGSYRSVELKHGNNTTVQQIMEGMELSQETQQYFTIWICSENLSLQLKPYHKPLQHVRDWPEILAELTNLDPQRETPQLFLRRDVRLPLEVEKQIEDPLAILILFDEARYNLLKGFYTAPDAKLITLASLLLQIVYGNYESKKHKQGFLNEENLKSIVPVTKLKSKAPHWTNRILHEYKNLSTSEGVSKEMHHLQRMFLQNCWEIPTYGAAFFTGQIFTKASPSNHKVIPVYVGVNIKGLHLLNMETKALLISLKYGCFMWQLGDTDTCFQIHSMENKMSFIVHTKQAGLVVKLLMKLNGQLMPTERNS
B3: mCherry-KRIT1-R452E MT-RE construct with a stop codon after the C-terminal cysteine of the lipid modification sequence (…) (protein, UniProt O00522 1-736)
chain: MGNPENIEDAYVAVIRPKNTASLNSREYRAKSYEILLHEVPIEGQKKKRKKVLLETKLQGNSEITQGILDYVVETTKPISPANQGIRGKRVVLMKKFPLDGEKMGREASLFIVPSVVKDNTKYTYTPGCPIFYCLQDIMRVCSESSTHFATLTARMLIALDKWLDERHAQSHFIPALFRPSPLERIKTNVINPAYATESGQTENSLHMGYSALEIKSKMLALEKADTCIYNPLFGSDLQYTNRVDKVVINPYFGLGAPDYSKIQIPKQEKWQRSMSSVTEDKERQWVDDFPLHRSACEGDSELLSRLLSERFSVNQLDSDHWAPIHYACWYGKVEATRILLEKGKCNPNLLNGQLSSPLHFAAGGGHAEIVQILLNHPETDRHITDQQGRSPLNICEENKQNNWEEAAKLLKEAINKPYEKVRIYRMDGSYRSVELKHGNNTTVQQIMEGMELSQETQQYFTIWICSENLSLQLKPYHKPLQHVRDWPEILAELTNLDPQRETPQLFLRRDVRLPLEVEKQIEDPLAILILFDEARYNLLKGFYTAPDAKLITLASLLLQIVYGNYESKKHKQGFLNEENLKSIVPVTKLKSKAPHWTNRILHEYKNLSTSEGVSKEMHHLQRMFLQNCWEIPTYGAAFFTGQIFTKASPSNHKVIPVYVGVNIKGLHLLNMETKALLISLKYGCFMWQLGDTDTCFQIHSMENKMSFIVHTKQAGLVVKLLMKLNGQLMPTERNSKKKPKKKSC
B4: mCherry-KRIT1 MT-APAA-RE construct with a stop codon after the C-terminal cysteine of the lipid modification sequence (…) (protein, UniProt O00522 1-736)
chain: B3 chain with N192A, Y195A

target: GST-Rap1a (UniProt P62834); assay: pull-down; 10 µg GST-Rap1a on GSH-Sepharose beads loaded with 1 mM GTPγS; 300 µg HEK293A lysate with mCherry-KRIT1 constructs, 5 mM DTT, 4°C overnight; washes in lysis buffer with 250 mM NaCl and 5 mM DTT; blot for KRIT1; only the target purified

| binding | Binder |
| --- | --- |
| binds weakly | B1 |
| binds weakly | B2 |
| binds weakly | B3 |
| binds weakly | B4 |
